This experiment has as its target B. subtilis hypothetical cytosolic protein 031524 (YesU) (Bacillus subtilis) (UniProt O31524). Description: SEC; purified His-tagged YesU in solution; molecular mass of approximately 25 kDa; column and buffer not told in the text shown (Fig. S1); both purified.

We go through one molecule from PMC6120924, “YesU from Bacillus subtilis preferentially binds fucosylated glycans” (Scientific Reports, 2018).

These are yes or no findings as the source states them, for the method shown.

B1: B. subtilis hypothetical cytosolic protein 031524 (YesU) (protein, UniProt O31524 1-220)
chain: MYKEGACLYRNPLRSKSDVKDWRMEGGGQISFDDHSLHLSHVQDEAHFVFWCPETFPDGIIVTWDFSPIEQPGLCMLFFAAAGIRGEDLFDPSLRKRTGTYPEYHSGDINALHLSYFRRKYAEERAFRTCNLRKSRGFHLAAMGADPLPSPDDADSPYRMKLIKDKGYVHFSINGLPILEWMDDGSTYGPVLTKGKIGFRQMAPMKAVYRDFAVHQAVRR
Take B1: the binding result was “no binding”.
